No constants are given. Whether binding was seen depends on the method and setting. Binding seen in cells or lysates may run through a third protein. Some results given as binding are weak or reduced against the parent protein; the word gives no strength.
Tests used:
[1] = target: Receptor for Advanced Glycation Endproducts (RAGE), endogenous in RAW 264.7 mouse macrophages (mouse (endogenous in RAW 264.7)) (UniProt Q62151); test: proximity ligation; RAW 264.7 macrophages on coverslips, serum-free medium 24 h (vehicle, 100 ng/mL LPS, 50 nM dPGS, or LPS + dPGS), fixed with 4% PFA, permeabilised with 0.1% Triton X-100; Duolink In Situ Orange Goat/Rabbit kit with goat anti-human RAGE and rabbit anti-human HMGB1
[2] = target: Receptor for Advanced Glycation Endproducts (RAGE), endogenous in human HMC3 microglia (human (endogenous in HMC3)) (UniProt Q15109); test: proximity ligation; HMC3 human microglia on coverslips, treated as the RAW 264.7 cells (vehicle, LPS, dPGS, LPS + dPGS); Duolink In Situ Red Mouse/Rabbit kit with rabbit anti-human RAGE and mouse anti-human HMGB1 [1F3]

Amino acid sequences for entries named in this document (tags omitted). Residues count along the entry.
UniProt Q62151, residues 23-402: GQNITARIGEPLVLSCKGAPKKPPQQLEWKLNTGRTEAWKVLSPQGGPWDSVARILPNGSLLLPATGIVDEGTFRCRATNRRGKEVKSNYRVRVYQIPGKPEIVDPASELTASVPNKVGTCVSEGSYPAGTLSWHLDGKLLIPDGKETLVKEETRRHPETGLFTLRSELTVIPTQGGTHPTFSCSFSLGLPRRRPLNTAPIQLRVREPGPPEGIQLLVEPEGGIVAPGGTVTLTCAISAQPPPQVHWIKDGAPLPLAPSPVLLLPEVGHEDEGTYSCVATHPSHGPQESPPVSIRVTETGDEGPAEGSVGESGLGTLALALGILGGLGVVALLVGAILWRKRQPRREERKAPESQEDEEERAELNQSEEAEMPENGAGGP
UniProt Q15109, residues 23-404: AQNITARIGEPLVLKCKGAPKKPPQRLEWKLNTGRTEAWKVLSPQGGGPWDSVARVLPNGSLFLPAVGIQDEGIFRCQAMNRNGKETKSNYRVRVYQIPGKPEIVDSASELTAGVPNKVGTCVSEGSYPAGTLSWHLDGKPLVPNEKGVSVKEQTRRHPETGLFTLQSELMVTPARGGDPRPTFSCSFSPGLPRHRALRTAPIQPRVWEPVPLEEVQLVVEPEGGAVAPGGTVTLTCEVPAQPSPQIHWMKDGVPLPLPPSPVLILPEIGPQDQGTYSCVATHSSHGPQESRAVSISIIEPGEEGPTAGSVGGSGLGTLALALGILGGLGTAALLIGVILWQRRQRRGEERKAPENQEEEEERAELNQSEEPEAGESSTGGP
UniProt P63158: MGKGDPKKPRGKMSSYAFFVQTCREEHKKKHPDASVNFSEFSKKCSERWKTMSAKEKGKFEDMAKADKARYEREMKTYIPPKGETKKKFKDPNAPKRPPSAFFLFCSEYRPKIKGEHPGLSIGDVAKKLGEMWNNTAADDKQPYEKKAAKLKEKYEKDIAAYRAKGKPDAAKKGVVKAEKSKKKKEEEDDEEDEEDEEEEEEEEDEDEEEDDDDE
UniProt P09429: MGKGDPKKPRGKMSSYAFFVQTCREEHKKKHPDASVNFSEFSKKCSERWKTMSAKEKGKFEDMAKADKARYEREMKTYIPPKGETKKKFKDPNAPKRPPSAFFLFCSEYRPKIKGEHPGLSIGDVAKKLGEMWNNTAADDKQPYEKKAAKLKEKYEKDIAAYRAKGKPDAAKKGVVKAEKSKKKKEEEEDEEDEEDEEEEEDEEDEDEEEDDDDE

Substance | binding [1] | binding [2]
High Mobility Group Box 1 (HMGB1), endogenous in RAW 264.7 mouse macrophages (from UniProt P63158 1-215) | binds | –
High Mobility Group Box 1 (HMGB1), endogenous in human HMC3 microglia (from UniProt P09429 1-215) | – | binds

Source: publication PMC12607995
